PubChem BioAssay AID686943 – Drosophila RNAi Screening Center | 2013
The screen tested about 23,000 reagents; shown is a random part of those that have a named target and a result. 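Extra replicates exist only for a retested subset of genes; insulin dose and duration not given; both raised and lowered dpERK matter.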 A plus sign joins genes that one reagent is predicted to hit. Not all columns of the deposit are shown. Reagent sequences are not shown. Not given: the amount of reagent, the time to read-out.

Purpose: 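Search across the genome for regulators of signalling from receptor tyrosine kinase to ERK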 (primary screen)
Cell system: Drosophila S2R+ haemocyte-like cells expressing YFP-tagged ERK (Rolled)
Knock-down reagent: long dsRNA against Drosophila genes
Conditions: insulin stimulation versus unstimulated cells; dose and duration not given
Detection: 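Antibody staining for doubly phosphorylated ERK divided by ERK-YFP signal, as plate z-scores, in insulin-treated and untreated cells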
Reading the numbers: replicate 1, z-score of dpERK with insulin and replicate 2, z-score of dpERK with insulin: higher = more active ERK per ERK-YFP after insulin; replicate 1, z-score of dpERK under basal conditions: higher = more basal active ERK per ERK-YFP

gene	DRSC id	replicate 1, z-score of dpERK with insulin	replicate 2, z-score of dpERK with insulin	replicate 1, z-score of dpERK under basal conditions
CG43108 (GeneID 12798329)	DRSC05654	0.98	0.03	1.11
obst-F (GeneID 40209)	DRSC10805	-0.23	0.29	-0.97
Parp1 (GeneID 3355109)	DRSC07725	0.32	0.59	-0.3
Parp1 (GeneID 3355109)	DRSC07778	0.42	1.38	0.92
Parp1 (GeneID 3355109)	DRSC07780	0.48	0.51	1.1
CG13082 (GeneID 35244)	DRSC02186	1.09	1.14	-0.04
CG31183 (GeneID 41927)	DRSC14403	-0.19	1.16	0.28
CG31183 (GeneID 41927)	DRSC15554	-0.46	1.26	-0.18
CG32687 (GeneID 31980)	DRSC18210	0.63	0.73	0.05
CG32687 (GeneID 31980)	DRSC18237	0.59	1.14	-0.44
Gr36b (GeneID 117487)	DRSC21637	0.07	-0.14	-0.11
HP1D3csd (GeneID 32906)	DRSC19548	1.07	0.62	0.25
CR17024 (GeneID 14462752)	DRSC02562	-0.35	0.29	0.76
Sec5 (GeneID 33563)	DRSC00714	0.27	-0.33	0.16
TfIIEbeta (GeneID 38527)	DRSC08701	1.8	1.13	-0.26
Acbp3 (GeneID 38783)	DRSC11022	-1.01	0.04	-0.27
CG4768 (GeneID 32666)	DRSC19917	0.29	0.54	1.04
CG10097 + CG10096	DRSC14189	-0.67	0.07	-0.68
CG10097 + CG10096	DRSC14190	0.04	0.1	-0.41
CG31156 (GeneID 42669)	DRSC15753	0.37	0.19	-0.52
CG31156 (GeneID 42669)	DRSC15755	-0.28	-0.29	0.2
CG7365 (GeneID 40200)	DRSC10824	-0.42	-0.43	0.27
Prosbeta1 (GeneID 46058)	DRSC07159	-1.55	-2.7	-1.62
D1 (GeneID 41095)	DRSC16638	-0.57	-0.17	-0.6
Prosbeta4 (GeneID 34999)	DRSC02603	-1.42	-3.06	-1.85
Cby (GeneID 42574)	DRSC14591	-0.07	-0.19	1.47
Tab2 (GeneID 37216)	DRSC07481	0.28	0.58	1.08
CG10949 (GeneID 35310)	DRSC02112	0.89	-0.67	0.57
CG11085 (GeneID 32213)	DRSC19374	1.16	0.56	1.07
CG11085 (GeneID 32213)	DRSC22832	0.74	0.91	-0.64
Nnf1b (GeneID 318874)	DRSC22080	-0.56	-1.94	-0.64
CG12920 (GeneID 36052)	DRSC06234	1.94	0.45	-0.6
Dtd (GeneID 41371)	DRSC15362	0.16	0.36	-0.21
CG16790 (GeneID 41155)	DRSC15156	0.99	-0.21	-0.76

2 entries from above, showing only “replicate 2, z-score of dpERK with insulin”:
obst-F (GeneID 40209) [DRSC10805]	0.29
Parp1 (GeneID 3355109) [DRSC07725]	0.59

The listing continues:
gene	DRSC id	replicate 1, z-score of dpERK with insulin	replicate 2, z-score of dpERK with insulin	replicate 1, z-score of dpERK under basal conditions
Dgk (GeneID 35738)	DRSC05064	-3.48	-3.42	-1.79
Dgk (GeneID 35738)	DRSC05065	0.82	0.42	0.09
Dgk (GeneID 35738)	DRSC06171	0.55	0.95	0.25
Dgk (GeneID 35738)	DRSC06782	0.63	1.46	0.93
Dgk (GeneID 35738)	DRSC22236	-3.53	-4.75	-0.05
sca (GeneID 36411)	DRSC07677	-0.48	-0.21	0.36
CG15213 (GeneID 50316)	DRSC10213	-1.4	-0.94	
CG10953 (GeneID 36941)	DRSC06021	1.03	0.36	0.27
CG1288 (GeneID 40865)	DRSC12538	-0.9	-0.37	-0.54
CG14664 (GeneID 12798232)	DRSC12250	0.24	0.79	-0.5
Hsc70-1 (GeneID 39542)	DRSC11185	0.89	-1.05	0.23
Sgf11 (GeneID 40035)	DRSC09987	-0.96	-0.16	0.18
CG16888 (GeneID 34789)	DRSC02541	0.31	0.82	1.6
CG31342 (GeneID 41592)	DRSC15349	-0.38	-0.62	-0.18
CG31342 (GeneID 41592)	DRSC16246	0.5	-1.61	-0.45
BHD (GeneID 38793)	DRSC11017	-0.02	0.28	0.67
BHD (GeneID 38793)	DRSC22833	0.29	0.33	0.75
Muc68E (GeneID 2768990)	DRSC09146	1.05	0.11	0.66
CG16853 (GeneID 34771)	DRSC01877	-0.85	-0.16	0.2
futsch (GeneID 5740544)	DRSC17688	0.18	0.14	-0.25
futsch (GeneID 5740544)	DRSC17949	0.26	0.12	0.2
futsch (GeneID 5740544)	DRSC17952	-0.34	0.52	-0.41
futsch (GeneID 5740544)	DRSC18543	-0.55	-0.77	0
